These results are taken from PubChem BioAssay AID901 (National Center for Advancing Translational Sciences (NCATS), 2007).

Molecules are shown by their SMILES. This is one part of the list. The main result of the screen is listed elsewhere. These columns were measured beside it and carry no call. Compounds called inactive in the main read-out are mostly missing here. The note in brackets gives the kind of curve behind each potency; many fits are weak.

A short description of the assay: qHTS Assay for Identifying the Cell-Membrane Permeable IMPase Inhibitors. Particulars: CHO-M1 cells, IP1 accumulation, HTRF TR-FRET ratio; measured here: donor channel 620 nm AC50. (In general: In qHTS, concentration-response curves come from the screen itself.)
As to `CC1CCC2(CC1)SCC(=O)N2c1ccccc1` (stereo unspecified), the concentration at half-maximal activity (AC50) is 794 nM [falling, full curve].
The figure for `COc1cc2oc(=O)c(Br)c(C)c2c(OC)c1OC` is 12600 nM [rising, partial curve, poor fit].
Turning to `Cc1noc(NS(=O)(=O)c2ccc(N/C=C/C(=O)c3ccncc3)cc2)c1C`, the AC50 was 31600 nM [falling, single point].
In the case of `O=C(CN(Cc1cccs1)C(=O)c1csnn1)NC1CCCC1`, the AC50 was 31600 nM [falling, single point].
The figure for `CC(OC(=O)c1ccncc1)C(=O)Nc1cccc(Cl)c1` (stereo unspecified) is 158 nM [falling, full curve, poor fit].
As for `O=C(OCn1ncc(Br)c(Br)c1=O)c1ccccc1Cl`, the AC50 was 25100 nM [rising, partial curve].
For `O=C(Nc1ccccc1C(=O)N1CCOCC1)c1ccco1`, the AC50 is 501 nM [falling, full curve, poor fit].
In the case of `O=C(NCc1ccco1)C1CCC(N2C(=O)c3ccccc3C2=O)CC1` (stereo unspecified), the AC50 is 12.6 nM [rising, full curve, poor fit].
The figure for `COc1ccccc1NC(=O)c1ccc(NC(=O)CSc2ncn[nH]2)cc1` is 56.2 nM [rising, full curve, poor fit].
Turning to `CN(C)c1ncnc2c1NC1=C(S2)C(=NCCCC(=O)O)CC(C)(C)C1`, the AC50 was 25100 nM [falling, single point].
For `Cn1cccc1Cc1nnc(SCC(=O)N2CCCc3ccccc32)n1-c1ccc(F)cc1`, the half-maximal activity concentration (AC50) is 3550 nM [falling, single point].
Then `COc1ccc2oc(=O)c(C(=O)NCc3ccccn3)cc2c1`, with 5010 nM [rising, single point]; and `Cc1cc(CN(C)C)c(O)c(C2(C)CCCCC2)c1`, with 708 nM [rising, single point]; and `Cc1cc(NC(=O)CSc2nc(-c3ccccc3)c(C#N)c(=O)[nH]2)no1`, with 12600 nM [rising, partial curve].
Consider `Cc1ccc2nc(-c3cccnc3)c(Nc3ccccc3C)n2c1`, for which the AC50 was 178 nM [falling, full curve, poor fit].
The figure for `CCCCNC(=O)c1cc2nc3c(c(C(F)(F)F)n2n1)CCc1ccccc1-3` is 12600 nM [falling, partial curve]; for `CCOC(=O)C1=C(CSc2nc3ccccc3s2)NC(=O)NC1c1cccc([N+](=O)[O-])c1` (stereo unspecified) it is 100 nM [falling, partial curve]; for `CC(C)NC(=S)NC(=O)c1ccc(-c2ccccc2)cc1` it is 15800 nM [rising, partial curve].
Then `COC(=O)c1sc(NC(=O)C2CCCCC2C(=O)O)c(C(=O)OC)c1C` (stereo unspecified), with 20000 nM [rising, single point].
Take `N#CC1=C(N)SC(C(=O)c2ccccc2)C1c1cccs1` (stereo unspecified): the AC50 is 200 nM [rising, single point].
As for `O=C(COC(=O)CCc1c[nH]c2ccccc12)NC1CCS(=O)(=O)C1` (stereo unspecified), the AC50 is 794 nM [falling, full curve].
Then `O=S1(=O)C=C(Sc2nnc(-c3ccccc3)o2)c2ccccc21`, with 12600 nM [rising, partial curve]; and `Cc1ccc(C)c(N2CCN(C(=O)CN(C)S(=O)(=O)c3cnc[nH]3)CC2)c1`, with 31600 nM [falling, single point].
Then `Cc1cc(C)n(Cc2ccc(NC(=O)c3nn(C)cc3[N+](=O)[O-])cc2)n1`, with 63.1 nM [falling, full curve, poor fit].
Then `O=C(CSc1nc(-c2ccc(F)cc2)cc(C(F)(F)F)n1)NCCc1ccccc1`, with 141 nM [falling, full curve]; and `CCn1nnnc1SCC(=O)c1ccc2c(c1)OCCO2`, with 15800 nM [rising, single point].
For the compound `COc1ccc(CNC(=O)CCc2nc(-c3ccc(C)cc3)no2)c(OC)c1`, the AC50 was 22400 nM [rising, partial curve, poor fit].
Then `CCCNC(=O)c1ccc2snnc2c1`, with 631 nM [rising, full curve, poor fit]; and `Cc1[nH]n2c(=O)cc(C(C)(C)C)nc2c1-c1ccccc1`, with 3160 nM [rising, single point].
The figure for `CCN1C(=O)c2ccccc2S(=O)(=O)c2ccc(C(=O)NCc3cccnc3)cc21` is 5620 nM [rising, single point].
The figure for `CCCCCCCCCCCNC(=O)c1ccoc1C` is 6310 nM [falling, single point].
For `O=CNNC(=O)c1cccc([N+](=O)[O-])c1`, the AC50 was 4.47 nM [rising, full curve, poor fit].
Then `O=C(O)[C@H]1CCCC[C@H]1C(=O)Nc1ccc(Nc2ccccc2)cc1`, with 1000 nM [falling, full curve]; and `O=C(OC1CCCCC1=O)c1cc(=O)c2ccccc2o1` (stereo unspecified), with 3160 nM [falling, single point]; and `Cc1ccc(-c2csc3nnc(SCC(=O)N4CCN(Cc5ccccc5)CC4)n23)cc1`, with 3160 nM [falling, single point].
With `Cc1nc2c(c(=O)n1CCC1=CCCCC1)c1nc3ccccc3nc1n2/N=C/c1ccco1`, the AC50 was 5.01 nM [falling, full curve, poor fit].
Then `O=C(CSc1ccc(-c2cccs2)nn1)NCc1ccccc1Cl`, with 11200 nM [rising, single point].
Then `CC1(C)CC(=O)c2cnc(NC(=O)CCc3ccccc3)nc2C1`, with 4470 nM [falling, full curve, poor fit].
As for `COc1cc(NC(=O)c2ccccc2)cc(OC)c1`, the AC50 was 31600 nM [falling, single point].
The figure for `CCOC(=O)c1ccc(NCc2nc3ccccc3n2C)cc1` is 3980 nM [rising, full curve]; for `O=C(NCc1ccco1)c1ccc(C(=O)NCc2ccco2)s1` it is 126 nM [falling, full curve, poor fit]; for `O=C(CO)N/N=C/c1ccccc1F` it is 10000 nM [falling, partial curve, poor fit].
Regarding `CCOC(=O)c1c(C)n(-c2ccc(OC)cc2)c2ccc(OC(=O)COc3ccccc3)cc12`, the half-maximal activity concentration (AC50) was 10000 nM [falling, partial curve, poor fit].
The figure for `COc1ccc(CCN2C(=O)C(O)=C(C(=O)c3ccco3)C2c2cccs2)cc1OC` (stereo unspecified) is 12600 nM [rising, partial curve]; for `CCCC(=O)Nc1c(C(=O)OCC)[nH]c2ccccc12` it is 1120 nM [falling, partial curve, poor fit].
In the case of `CC(=NCCN1CCNCC1)C1=C(O)CC(C)(C)CC1=O`, the AC50 was 3980 nM [rising, partial curve].
Consider `CC(C)n1c(SCC(=O)Nc2ccc3c(c2)OCO3)nc2c1c(=O)n(C)c(=O)n2C`, for which the AC50 is 158 nM [rising, full curve, poor fit].
On to `CC(=O)Nc1ccc(S(=O)(=O)N2CCN(C(=O)c3ccccc3F)CC2)cc1`, for which the AC50 was 1410 nM [falling, partial curve].
As to `CS(=O)(=O)N1CCC(c2noc(-c3ccc(C(F)(F)F)cc3)n2)CC1`, the AC50 was 11200 nM [rising, single point].
Turning to `CCOc1ccc(NC(=O)CN(C)CC(=O)Nc2ccccc2C#N)cc1OCC`, the half-maximal activity concentration (AC50) is 1000 nM [rising, full curve].
For `O=C(CCc1nc(-c2ccccc2F)no1)NCCN1CCOCC1`, the AC50 was 3980 nM [falling, single point].
The figure for `Nn1c(SCC(=O)NC2CCCCC2)nnc1-c1ccc(Cl)cc1` is 15.8 nM [falling, partial curve]; for `COC(=O)c1ccc(CSc2nnc(NC(=O)c3cc4c(s3)CCCC4)s2)cc1` it is 251 nM [falling, full curve]; for `COc1ccc(OC)c(NC(=O)CC(NCCC2=CCCCC2)C(=O)O)c1` (stereo unspecified) it is 158 nM [falling, full curve, poor fit].
The figure for `COc1ccc(-n2c(=O)cc(N3CCN(c4ccccc4)CC3)[nH]c2=O)cc1` is 5.01 nM [falling, full curve, poor fit]; for `O=C(CSc1nnc(CNC(=O)c2ccco2)o1)NC1CCCC1` it is 100 nM [falling, full curve, poor fit].
The figure for `COc1ccc(Cl)cc1S(=O)(=O)Nc1ccc2[nH]c(=O)[nH]c2c1` is 3550 nM [falling, single point]; for `CCc1nn(C(C)C(=O)NC(C)CCc2ccco2)c(=O)c2cc3occc3n12` (stereo unspecified) it is 10000 nM [falling, partial curve]; for `Cc1ccc(Cl)cc1N1CCN(C(=O)CCS(=O)(=O)c2cc(Br)cc3c2N(C(=O)C2CC2)CC3)CC1` it is 28.2 nM [falling, full curve].
With `CCc1nnc(NC(=O)CSc2nnc(Cc3ccccc3)n2-c2ccc(OC)cc2)s1`, the AC50 was 158 nM [rising, full curve, poor fit].
Then `O=C(Cn1c(CN2CCCCC2)nc2ccccc2c1=O)NC1CCCCC1`, with 2000 nM [falling, full curve, poor fit]; and `CC(C)N(Cc1nc(-c2ccccc2)no1)C(=O)CN(C)S(=O)(=O)c1ccc(Br)cc1`, with 1580 nM [falling, partial curve].
The figure for `CCOC(=O)N1CCN(C(=O)c2cc(S(=O)(=O)N3CCCC3)cn2C)CC1` is 63.1 nM [falling, full curve, poor fit]; for `Cc1noc(C)c1S(=O)(=O)NCCCN1CCN(Cc2ccccc2)CC1` it is 79.4 nM [falling, full curve, poor fit]; for `CC(C)COP(=O)(OCC(C)C)C(O)c1ccc(F)cc1` (stereo unspecified) it is 447 nM [falling, partial curve].
The figure for `COc1cccc(CNC(=O)C(=O)NCC2CCCO2)c1` (stereo unspecified) is 794 nM [falling, full curve].

Broadly, the AC50 is the concentration giving half of the maximal activity seen.
